PubChem BioAssay AID743121 – NCATS | 2013
In all, the deposit lists about 26,000 reagents; below is an unselected part. Over the whole deposit, 167 (0.63%) got an active call. 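Calls are per gene from RSA p-values that are not deposited; an individual active-marked siRNA can sensitise only weakly.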 Unmarked entries are inactive. Reagents against one gene are numbered here. Further read-outs or replicates are left out here.

Aim: 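Partners whose loss is lethal together with topoisomerase I blockade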 (primary screen)
Cell system: MDA-MB-231 cells, a human breast cancer line
Reagent: single siRNA against human genes, 20 nM siRNA (0.8 pmol per well)
Duration: 120 h (drug added 48 h after transfection, read 72 h later)
Conditions: camptothecin 20 nM (about EC30) for 72 h; vehicle 0.1% DMSO in parallel plates
Measurement: 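CellTiter-Glo ATP signal, scaled to control siRNA as percent viability; sensitisation given as log2 of untreated divided by camptothecin-treated viability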
Direction: log2 vehicle/camptothecin viability: higher = stronger sensitisation to camptothecin; viability with camptothecin: higher = more viable cells
Hit rule: 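Active genes have an RSA gene-level p-value below 0.001, computed from the ratios of their separate siRNAs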

CST3 #1
- log2 vehicle/camptothecin viability: -0.325
- viability with camptothecin (% of control): 60.9

CST3 #2
- log2 vehicle/camptothecin viability: -0.986
- viability with camptothecin (% of control): 100

CST3 #3
- log2 vehicle/camptothecin viability: -0.498
- viability with camptothecin (% of control): 103

C1RL #1
- log2 vehicle/camptothecin viability: -0.00815
- viability with camptothecin (% of control): 93.8

C1RL #2
- log2 vehicle/camptothecin viability: -0.223
- viability with camptothecin (% of control): 97.4

C1RL #3
- log2 vehicle/camptothecin viability: -0.186
- viability with camptothecin (% of control): 78.3

C1RL #4
- log2 vehicle/camptothecin viability: -0.0618
- viability with camptothecin (% of control): 42.6

RAB3D #1
- log2 vehicle/camptothecin viability: -0.437
- viability with camptothecin (% of control): 48.6

RAB3D #2
- log2 vehicle/camptothecin viability: -0.0777
- viability with camptothecin (% of control): 56.1

RAB3D #3
- log2 vehicle/camptothecin viability: -0.371
- viability with camptothecin (% of control): 73.5

RAB3D #4
- log2 vehicle/camptothecin viability: 0.47
- viability with camptothecin (% of control): 17.1

CYB5D2 #1
- log2 vehicle/camptothecin viability: 0.358
- viability with camptothecin (% of control): 83.5

CYB5D2 #2
- log2 vehicle/camptothecin viability: -0.371
- viability with camptothecin (% of control): 65

CYB5D2 #3
- log2 vehicle/camptothecin viability: 0.117
- viability with camptothecin (% of control): 67.2

Already shown: 2 of the entries above.
RAB3D #2
- log2 vehicle/camptothecin viability: -0.0777
- viability with camptothecin (% of control): 56.1

RAB3D #3
- log2 vehicle/camptothecin viability: -0.371
- viability with camptothecin (% of control): 73.5
